Assay results: article PMC6175864
Results are given in words; binding and its absence hold for the method and conditions named. For part of these data: Binding seen in cells or lysates may run through a third protein. Some binding calls cover weakened binding; strength is not graded here. Each block holds one substance with its values, some of them ahead of it.

Chains of the proteins cited; added tags and fusions are not shown. Lines headed by an entry give the natural chain unless they say otherwise; changes in a name come on top. A line that says so, or that is headed by a name, gives the form on record, which may keep a tag or linker.
UniProt P49815: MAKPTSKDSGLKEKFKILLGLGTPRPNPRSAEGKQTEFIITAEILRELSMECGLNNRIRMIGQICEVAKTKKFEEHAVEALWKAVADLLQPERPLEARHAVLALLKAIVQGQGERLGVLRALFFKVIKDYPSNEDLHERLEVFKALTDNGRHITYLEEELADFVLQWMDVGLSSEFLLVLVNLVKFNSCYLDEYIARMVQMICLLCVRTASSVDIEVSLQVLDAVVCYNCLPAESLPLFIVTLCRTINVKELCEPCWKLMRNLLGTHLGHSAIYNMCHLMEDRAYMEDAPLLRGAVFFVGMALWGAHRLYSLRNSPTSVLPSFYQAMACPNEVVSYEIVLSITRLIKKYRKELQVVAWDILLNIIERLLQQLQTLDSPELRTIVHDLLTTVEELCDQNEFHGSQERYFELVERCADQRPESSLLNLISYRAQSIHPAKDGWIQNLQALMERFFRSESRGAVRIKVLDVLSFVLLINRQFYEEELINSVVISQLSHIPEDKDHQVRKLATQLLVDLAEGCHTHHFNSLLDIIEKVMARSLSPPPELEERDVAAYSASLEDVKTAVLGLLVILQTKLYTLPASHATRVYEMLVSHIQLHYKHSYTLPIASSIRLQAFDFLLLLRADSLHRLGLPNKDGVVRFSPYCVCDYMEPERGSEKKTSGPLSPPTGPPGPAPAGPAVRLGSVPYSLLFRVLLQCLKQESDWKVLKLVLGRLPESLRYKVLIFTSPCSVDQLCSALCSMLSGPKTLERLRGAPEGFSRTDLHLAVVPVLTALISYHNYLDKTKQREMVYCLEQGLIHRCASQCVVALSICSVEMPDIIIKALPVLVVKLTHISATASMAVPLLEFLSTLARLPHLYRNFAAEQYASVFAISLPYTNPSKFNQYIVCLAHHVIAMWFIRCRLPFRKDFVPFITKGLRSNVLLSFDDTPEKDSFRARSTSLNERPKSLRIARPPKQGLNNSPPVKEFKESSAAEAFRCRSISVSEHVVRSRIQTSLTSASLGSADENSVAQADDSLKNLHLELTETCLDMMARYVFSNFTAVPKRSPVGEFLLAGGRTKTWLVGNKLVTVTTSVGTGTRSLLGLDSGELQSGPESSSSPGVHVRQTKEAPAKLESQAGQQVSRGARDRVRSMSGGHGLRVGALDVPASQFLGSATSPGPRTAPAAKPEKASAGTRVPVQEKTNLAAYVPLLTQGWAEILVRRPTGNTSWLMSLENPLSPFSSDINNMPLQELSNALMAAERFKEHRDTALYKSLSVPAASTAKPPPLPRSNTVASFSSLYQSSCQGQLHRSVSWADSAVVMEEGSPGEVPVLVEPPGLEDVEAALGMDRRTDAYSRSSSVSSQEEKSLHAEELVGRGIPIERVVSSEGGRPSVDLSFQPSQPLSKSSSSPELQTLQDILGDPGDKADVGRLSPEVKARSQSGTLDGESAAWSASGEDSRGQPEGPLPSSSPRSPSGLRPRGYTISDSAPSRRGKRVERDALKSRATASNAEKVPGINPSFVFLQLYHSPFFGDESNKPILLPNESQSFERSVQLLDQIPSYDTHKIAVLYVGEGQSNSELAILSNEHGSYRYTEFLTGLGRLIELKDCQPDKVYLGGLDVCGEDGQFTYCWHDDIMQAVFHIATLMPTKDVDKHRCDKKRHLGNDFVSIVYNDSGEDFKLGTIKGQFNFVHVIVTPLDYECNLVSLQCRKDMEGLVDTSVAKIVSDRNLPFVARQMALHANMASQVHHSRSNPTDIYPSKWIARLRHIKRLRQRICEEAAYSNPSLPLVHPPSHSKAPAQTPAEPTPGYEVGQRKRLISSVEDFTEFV
UniProt P62745: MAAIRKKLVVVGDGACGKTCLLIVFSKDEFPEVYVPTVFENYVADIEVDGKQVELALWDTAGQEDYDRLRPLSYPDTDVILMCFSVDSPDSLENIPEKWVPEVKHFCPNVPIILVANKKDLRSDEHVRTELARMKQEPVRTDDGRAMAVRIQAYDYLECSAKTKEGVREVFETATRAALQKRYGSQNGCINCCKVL
HA-tagged RhoB T173,175E (2E), in HEK293T (P62745, form named): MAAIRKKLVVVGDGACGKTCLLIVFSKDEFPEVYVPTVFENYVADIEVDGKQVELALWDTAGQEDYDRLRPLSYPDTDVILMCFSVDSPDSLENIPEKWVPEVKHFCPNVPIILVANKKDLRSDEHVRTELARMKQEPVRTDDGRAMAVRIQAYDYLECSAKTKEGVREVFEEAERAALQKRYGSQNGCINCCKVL
HA-tagged RhoB T173,175A (2A), in HEK293T (P62745, form named): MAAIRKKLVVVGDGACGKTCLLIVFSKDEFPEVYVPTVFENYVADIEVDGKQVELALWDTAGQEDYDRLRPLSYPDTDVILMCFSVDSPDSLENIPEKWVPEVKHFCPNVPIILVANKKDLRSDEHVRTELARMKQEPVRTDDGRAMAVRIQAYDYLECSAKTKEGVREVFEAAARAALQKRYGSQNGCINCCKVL
HA-tagged RhoB 4KR, in HeLa (P62745, form named): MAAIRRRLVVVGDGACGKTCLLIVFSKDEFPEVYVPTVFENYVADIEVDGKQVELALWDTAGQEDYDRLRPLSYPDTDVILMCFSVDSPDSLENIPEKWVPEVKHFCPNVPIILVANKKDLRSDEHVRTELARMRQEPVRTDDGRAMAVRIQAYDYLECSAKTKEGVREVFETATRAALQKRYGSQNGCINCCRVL
UniProt O75925: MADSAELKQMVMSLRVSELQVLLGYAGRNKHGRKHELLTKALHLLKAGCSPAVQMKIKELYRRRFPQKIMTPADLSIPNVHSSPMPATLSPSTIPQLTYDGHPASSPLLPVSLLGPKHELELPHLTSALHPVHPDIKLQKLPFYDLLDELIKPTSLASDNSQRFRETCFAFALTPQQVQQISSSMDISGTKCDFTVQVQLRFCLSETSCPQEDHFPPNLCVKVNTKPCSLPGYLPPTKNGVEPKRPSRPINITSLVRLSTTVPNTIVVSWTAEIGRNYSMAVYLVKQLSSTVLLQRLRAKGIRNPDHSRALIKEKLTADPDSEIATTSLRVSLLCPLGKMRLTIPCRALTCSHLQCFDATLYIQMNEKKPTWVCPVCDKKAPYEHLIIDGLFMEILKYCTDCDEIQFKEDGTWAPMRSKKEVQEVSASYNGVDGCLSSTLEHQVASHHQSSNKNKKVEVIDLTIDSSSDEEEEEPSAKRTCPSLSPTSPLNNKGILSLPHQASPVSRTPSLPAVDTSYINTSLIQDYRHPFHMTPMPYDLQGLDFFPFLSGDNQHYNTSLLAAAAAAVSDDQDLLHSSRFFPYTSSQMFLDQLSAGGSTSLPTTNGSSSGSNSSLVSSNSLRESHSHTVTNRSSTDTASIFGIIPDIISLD
UniProt P63279: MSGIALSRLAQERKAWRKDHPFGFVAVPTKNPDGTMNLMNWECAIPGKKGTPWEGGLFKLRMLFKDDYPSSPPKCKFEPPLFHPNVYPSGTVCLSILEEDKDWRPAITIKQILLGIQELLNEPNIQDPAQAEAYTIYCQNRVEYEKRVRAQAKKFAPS

How the values were obtained:
[1] = target: endogenous TSC2 (HeLa) (human (endogenous in HeLa)) (UniProt P49815); experiment: co-IP; HeLa cells (untransduced or transduced with HA-RhoB forms), untreated or 2 h after UV (80 J/m2) or 4 h after MMS (0.5 mM), with or without Chk1 inhibitor; anti-TSC2 IP of endogenous TSC2, blot for associated RhoB
[2] = target: exogenous RhoB (constructs of Supplementary Fig. 1d and 6e) (human) (UniProt P62745); experiment: co-IP; in cells with exogenous RhoB (Supplementary Fig. 1d and 6e); tags, cells and the precipitated partner not shown
[3] = target: Flag-tagged PIAS1 (F-PIAS1) (UniProt O75925); experiment: co-IP; HEK293T cells transfected with Flag- and HA-tagged proteins, lysed in TNTE 0.5% (50 mM Tris-HCl pH 7.5, 150 mM NaCl, 1 mM EDTA, 0.5% Triton X-100); anti-Flag IP, blot for associated HA-RhoB; for PIAS1 cells with or without UV (80 J/m2, 1 h) or MMS
[4] = target: Flag-tagged Ubc9 (F-Ubc9) (UniProt P63279); experiment: as above
GST-RhoB (human) = GST-RhoB (human) (UniProt P62745); experiment: pull-down; in vitro GST pull-down with bacterially expressed proteins purified on glutathione sepharose beads in TNTE 0.5% buffer; free Ubc9 and PIAS1 obtained by TEV cleavage; both purified
[5] = target: endogenous RhoB (HeLa) (human (endogenous in HeLa)) (UniProt P62745); experiment: co-IP; HeLa cells transduced with the tagged catalytically inactive mutant; anti-RhoB IP of endogenous RhoB, blot for the associated mutant

Substance: HA-tagged RhoB, wild type, in HeLa (from UniProt P62745 1-196)
binding [1]: binds

Substance: HA-tagged RhoB 2A, in HeLa (from UniProt P62745 1-196)
binding [1]: binds weakly

Substance: HA-tagged RhoB T173,175A (2A), in HEK293T (from UniProt P62745 1-196)
binding [3]: binds weakly

Substance: free PIAS1 protein (from GST-PIAS1 by TEV cleavage) (from UniProt O75925 1-651) (enzyme)
binding (GST-RhoB (human)): binds

Substance: HA-tagged RhoB T173,175E (2E), in HEK293T (from UniProt P62745 1-196)
binding [3]: binds

Other lines, results leading:

binding [1]: binds
Substance: endogenous RhoB (HeLa) (from UniProt P62745 1-196)

binding [1]: binds
Substance: HA-tagged RhoB 2E, in HeLa (from UniProt P62745 1-196)

binding [2]: binds
Substance: PIAS1-C351S (construct of Supplementary Fig. 1d) (from UniProt O75925 1-651) (enzyme)

binding [1]: binds
Substance: HA-tagged RhoB 4KR, in HeLa (from UniProt P62745 1-196)

binding [3]: binds | binding [4]: binds
Substance: HA-tagged RhoB (HA-RhoB), wild type, in HEK293T (from UniProt P62745 1-196)

binding [5]: binds
Substance: HA-tagged PIAS1-C351S mutant (HA-PIAS1-C351S) (from UniProt O75925 1-651) (enzyme)
